The source of these data is PubChem BioAssay AID2685 (National Center for Advancing Translational Sciences (NCATS), 2010).

Some of the results follow. Further columns of the screen follow, without active or inactive calls. Compounds called inactive in the main read-out are mostly missing here. Words in brackets tell the shape of the fitted curve; partial curves, single points and poor fits give uncertain potencies.

The nature of this experiment: qHTS Assay for Lipid Storage Modulators in Drosophila S3 Cells.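 As to cell number change: cells counted by Cell Tracker Red CMTPX staining in the red channel.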 The following applies: BODIPY lipid droplet fluorescence, 18-24 h; for cell number change: measured here: cell count max response, cells fed with added oleic acid. In short, it runs like this: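 Drosophila S3 cells got compounds at several concentrations plus oleic acid (400 uM solution). Laser-scanning cytometry with 488 nm excitation read lipid droplets at 500-530 nm and cells at 575-640 nm. Percent activity was relative to 20 uM Triacsin C.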

[1] abbreviates: measured here: lipid fluorescence (Fed channel) AC50, cells fed with added oleic acid.
[2] abbreviates: measured here: cell number channel AC50, cells fed with added oleic acid.

Regarding `Cc1ccc(/C=N/NC(=O)c2nnn(-c3nonc3N)c2CNc2ccccc2)cc1`, the cell number change is -15.6%. Also, under setting [1], the half-maximal activity concentration (AC50) was 0.58 µM [falling, single point].

As to `Cc1nc(NS(=O)(=O)c2cccs2)c2c3c(sc2n1)CCC3`, the cell number change is -17.2%. Moreover, the AC50 under setting [2] was 2.06 µM [falling, partial curve]. The concentration at half-maximal activity (AC50) under setting [1] is 0.00517 µM [rising, full curve, poor fit].

With `Cn1c(-c2cccc(Br)c2)n[nH]c1=O`, the cell number change was -19.1%. Further, the AC50 under setting [1] is 20.6 µM [falling, single point].

Regarding `O=c1oc2ccccc2nc1/C=C(\O)c1ccc(Br)cc1`, the cell number change came out at 8.57%. For the same compound, under setting [1], the AC50 is 1.84 µM [rising, single point].

Regarding `C[n+]1c2n(c3ccccc31)N=C(c1cc(C(C)(C)C)c(O)c(C(C)(C)C)c1)CS2`, the cell number change was -55.9%. The AC50 under setting [2] was 3.26 µM [falling, full curve]. Besides, the half-maximal activity concentration (AC50) under setting [1] was 25.9 µM [falling, partial curve].

Turning to `OCC[C@@H]1C[C@H](O)[C@@H](O)[C@@]2(CCc3ccccc3O2)O1`, the cell number change stood at 13.5%. For the same compound, under setting [1], the half-maximal activity concentration (AC50) was 0.0366 µM [falling, full curve, poor fit].

As to `N#Cc1c[nH]n2c(=O)c3c(nc12)CCC3`, the cell number change is 2.26%. In addition, the AC50 under setting [1] is 32.6 µM [falling, single point].

Consider `O=C1CCC([N+](=O)[O-])C(c2cccc3ccccc23)N1` (stereo not given), for which the cell number change is -31%. Further, the half-maximal activity concentration (AC50) under setting [1] was 0.0058 µM [falling, full curve, poor fit].

`CCOCCOC(=O)NCCCCCCNC(=O)OCCOCC`: the concentration at half-maximal activity (AC50) under setting [2] was 2.31 µM [falling, partial curve].

With `COc1ccc(N(CC(=O)NCc2ccccc2)C(=O)Cn2nnc(-c3ccccc3F)n2)cc1OC`, the cell number change was determined as 14.6%. The concentration at half-maximal activity (AC50) under setting [1] is 5.8 µM [rising, partial curve, poor fit].

For `O=C(O)CCCCCNC(=O)c1cccc(Br)c1`, the cell number change came to 1.33%.

Take `CCOC(=O)c1cc(-c2csc(COc3ccccc3)n2)on1`: the cell number change was 2.38%. Under setting [1], the half-maximal activity concentration (AC50) is 0.0058 µM [falling, full curve, poor fit].

With `COc1ccc2nc(SCC(=O)NCc3ccc(S(N)(=O)=O)cc3)[nH]c2c1`, the cell number change came out at 15.3%.

For `COc1ccc(Nc2c3ccccc3nc3ccccc23)cc1`, the cell number change is -39%. The concentration at half-maximal activity (AC50) under setting [2] is 20.6 µM [falling, single point]. Also, the AC50 under setting [1] was 29.1 µM [falling, single point].

`CCOC(=O)c1cccc(NC(=O)/C=C/c2ccc3c(c2)OCO3)c1`: the cell number change is 7.62%. Also, under setting [2], the half-maximal activity concentration (AC50) is 5.17 µM [falling, single point]. In addition, under setting [1], the AC50 is 6.51 µM [falling, single point].

On to `O=C(C1CCCO1)N1CCN(Cc2c(O)ccc3ccccc23)CC1` (stereo not given), for which the cell number change was -20.2%. Under setting [2], the AC50 was 0.731 µM [falling, full curve, poor fit].

`Cc1cccc(NC(=S)N2CCN(c3ccccc3F)CC2)c1C`: the cell number change was -4.2%. Under setting [1], the concentration at half-maximal activity (AC50) was 5.8 µM [rising, full curve].

For `CCOc1[nH]n(-c2ccccc2)c(=O)c1C=NCc1cccnc1`, the cell number change is 38%. Further, under setting [2], the half-maximal activity concentration (AC50) was 0.00461 µM [rising, full curve, poor fit]. Besides, under setting [1], the concentration at half-maximal activity (AC50) is 25.9 µM [rising, single point].

With `Cc1[nH]nc(SCC(=O)N2CCC(C)CC2)c1[N+](=O)[O-]`, the cell number change was found to be 78.1%. For the same compound, the concentration at half-maximal activity (AC50) under setting [2] was 29.1 µM [rising, single point].

Regarding `N#C/C(=N/Nc1ccc(OC(F)(F)F)cc1)C(N)=S`, the cell number change is -65.5%. Moreover, the AC50 under setting [2] was 23.1 µM [falling, partial curve]. The AC50 under setting [1] was 23.1 µM [falling, partial curve].

With `Cc1ccc2nsnc2c1S(=O)(=O)NCCc1c(C)[nH]c2ccc(F)cc12`, under setting [1], the half-maximal activity concentration (AC50) is 2.59 µM [rising, partial curve].

Take `CC(C)(C)c1ccc(/C=C2\Oc3cc(OC(=O)N4CCOCC4)ccc3C2=O)cc1`: the cell number change is -50%. For the same compound, the AC50 under setting [2] was 20.6 µM [falling, single point]. Under setting [1], the AC50 was 18.4 µM [falling, partial curve, poor fit].

On to `COc1ccc(C(=O)NCc2cccnc2)cc1C(=O)NCc1cccnc1`, for which the cell number change turned out to be 46%. In addition, the concentration at half-maximal activity (AC50) under setting [2] was 2.91 µM [rising, full curve]. Moreover, the AC50 under setting [1] is 3.26 µM [rising, partial curve].

In the case of `Cc1ccc(S(=O)(=O)NCCNC(=O)c2ccccc2)cc1`, the cell number change is 39%. Further, the AC50 under setting [2] is 25.9 µM [rising, single point].

As to `O=C(C1CCC(=O)N(C2CCCC2)C1)N1CCN(c2ccc(Cl)cc2)CC1` (stereo not given), the cell number change is -6.12%. Besides, the AC50 under setting [1] was 4.61 µM [falling, single point].

For the compound `COc1ccc(C)cc1NC(=O)CCC(=O)Nc1ccc2nc(N3CCN(C)CC3)cc(C)c2c1`, the cell number change is -40.8%. The half-maximal activity concentration (AC50) under setting [2] is 14.6 µM [falling, partial curve, poor fit]. In addition, the half-maximal activity concentration (AC50) under setting [1] was 29.1 µM [falling, single point].

Consider `Cc1ccc(Cl)cc1NC(=O)CCN1C(=O)C2C3CCC(C3)C2C1=O` (stereo not given), for which the cell number change was -6.23%. In addition, the AC50 under setting [1] was 4.11 µM [falling, single point].

In the case of `CC(=O)Cc1nsc(NC(=O)c2cc(-c3cccc(C(F)(F)F)c3)oc2C)n1`, the concentration at half-maximal activity (AC50) is, setting by setting: under setting [2], 1.46 µM [rising, partial curve, poor fit]; under setting [1], 1.64 µM [rising, partial curve].

Turning to `COc1cc(/C=N/n2c(COc3ccccc3)n[nH]c2=S)cc(OC)c1OC(C)=O`, the cell number change is -1.39%. Besides, the concentration at half-maximal activity (AC50) under setting [1] was 4.11 µM [rising, partial curve].

On to `Cc1ccc(CN2CCN(Cc3ccc(-n4cccn4)cc3C)CC2CCO)cc1` (stereo not given), for which the cell number change amounted to 7.85%. In addition, under setting [1], the AC50 is 0.164 µM [rising, full curve, poor fit].

For the compound `Cc1cccc(C)c1N(CC(=O)N(C)Cc1ccccc1)S(C)(=O)=O`, the cell number change amounted to 28.5%. For the same compound, the AC50 under setting [2] is 3.66 µM [rising, full curve, poor fit]. For the same compound, the AC50 under setting [1] is 4.11 µM [rising, single point].

For the compound `Cc1c(CN2CCCC(C)C2)c(O)n(CCO)c(=O)c1C#N` (stereo not given), the cell number change was -12.3%. Further, the AC50 under setting [1] is 0.082 µM [falling, full curve, poor fit].

Regarding `CCOC(=O)C(C#N)=C1CCN(Cc2ccccc2)CC1`, the cell number change is -9.6%. Besides, under setting [2], the half-maximal activity concentration (AC50) is 0.00461 µM [falling, full curve, poor fit].

For `CCOc1ccc(NC(=O)CN(C)C(=O)c2cc(S(=O)(=O)N3CCCCC3)ccc2C)cc1OCC`, the AC50 under setting [1] was 3.66 µM [rising, single point].

Turning to `COc1cccc(CNC(=O)c2ccc(CS(=O)(=O)Cc3ccccc3C)o2)c1`, the cell number change was -22.1%. Also, under setting [1], the half-maximal activity concentration (AC50) was 29.1 µM [falling, single point].
